Experimental data published in article PMC8225741.

Protein sequences, listed by entry. Tags and fused reporters are not part of them. Lines headed by an entry give the natural chain unless they say otherwise; changes in a name come on top. Residues count along the entry.
UniProt Q8IXJ9: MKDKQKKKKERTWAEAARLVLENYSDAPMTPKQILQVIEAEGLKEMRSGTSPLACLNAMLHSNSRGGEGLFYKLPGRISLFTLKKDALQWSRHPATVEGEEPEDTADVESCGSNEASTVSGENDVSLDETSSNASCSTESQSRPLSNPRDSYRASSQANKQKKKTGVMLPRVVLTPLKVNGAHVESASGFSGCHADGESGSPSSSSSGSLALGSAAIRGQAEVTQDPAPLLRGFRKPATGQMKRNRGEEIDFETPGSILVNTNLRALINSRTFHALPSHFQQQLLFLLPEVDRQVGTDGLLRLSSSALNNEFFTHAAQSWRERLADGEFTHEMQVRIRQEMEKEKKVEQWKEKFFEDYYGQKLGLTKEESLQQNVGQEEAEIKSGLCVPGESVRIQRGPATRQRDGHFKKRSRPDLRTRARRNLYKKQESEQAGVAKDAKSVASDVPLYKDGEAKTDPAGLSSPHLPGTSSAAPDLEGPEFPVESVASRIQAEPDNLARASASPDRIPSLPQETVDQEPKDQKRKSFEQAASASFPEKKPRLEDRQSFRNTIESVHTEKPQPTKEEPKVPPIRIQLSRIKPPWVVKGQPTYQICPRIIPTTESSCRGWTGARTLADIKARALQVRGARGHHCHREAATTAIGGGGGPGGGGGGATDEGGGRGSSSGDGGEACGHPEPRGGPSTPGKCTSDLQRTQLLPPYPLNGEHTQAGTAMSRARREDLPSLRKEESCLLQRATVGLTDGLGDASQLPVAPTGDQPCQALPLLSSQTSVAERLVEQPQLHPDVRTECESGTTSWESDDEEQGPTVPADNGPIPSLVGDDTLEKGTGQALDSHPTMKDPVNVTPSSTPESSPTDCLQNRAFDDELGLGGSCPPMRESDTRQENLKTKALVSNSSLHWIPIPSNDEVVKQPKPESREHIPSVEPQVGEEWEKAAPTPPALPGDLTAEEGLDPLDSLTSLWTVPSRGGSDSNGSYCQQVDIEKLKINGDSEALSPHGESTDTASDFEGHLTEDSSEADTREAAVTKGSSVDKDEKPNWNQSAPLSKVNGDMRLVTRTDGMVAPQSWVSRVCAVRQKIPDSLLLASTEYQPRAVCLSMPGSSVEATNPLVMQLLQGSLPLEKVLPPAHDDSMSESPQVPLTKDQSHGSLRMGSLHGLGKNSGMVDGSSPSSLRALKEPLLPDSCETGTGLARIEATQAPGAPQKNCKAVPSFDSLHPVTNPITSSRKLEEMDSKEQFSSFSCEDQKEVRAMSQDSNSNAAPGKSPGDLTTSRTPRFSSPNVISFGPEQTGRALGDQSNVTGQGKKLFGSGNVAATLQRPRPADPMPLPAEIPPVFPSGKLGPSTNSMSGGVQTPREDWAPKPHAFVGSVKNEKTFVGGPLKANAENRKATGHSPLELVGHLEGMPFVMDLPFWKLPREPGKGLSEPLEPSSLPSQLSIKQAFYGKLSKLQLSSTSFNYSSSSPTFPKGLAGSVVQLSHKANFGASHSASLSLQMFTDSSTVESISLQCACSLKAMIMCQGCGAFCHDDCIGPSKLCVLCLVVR
ASXL1^N646-Flag (in U2OS): residues 1-646 of Q8IXJ9
UniProt Q01167: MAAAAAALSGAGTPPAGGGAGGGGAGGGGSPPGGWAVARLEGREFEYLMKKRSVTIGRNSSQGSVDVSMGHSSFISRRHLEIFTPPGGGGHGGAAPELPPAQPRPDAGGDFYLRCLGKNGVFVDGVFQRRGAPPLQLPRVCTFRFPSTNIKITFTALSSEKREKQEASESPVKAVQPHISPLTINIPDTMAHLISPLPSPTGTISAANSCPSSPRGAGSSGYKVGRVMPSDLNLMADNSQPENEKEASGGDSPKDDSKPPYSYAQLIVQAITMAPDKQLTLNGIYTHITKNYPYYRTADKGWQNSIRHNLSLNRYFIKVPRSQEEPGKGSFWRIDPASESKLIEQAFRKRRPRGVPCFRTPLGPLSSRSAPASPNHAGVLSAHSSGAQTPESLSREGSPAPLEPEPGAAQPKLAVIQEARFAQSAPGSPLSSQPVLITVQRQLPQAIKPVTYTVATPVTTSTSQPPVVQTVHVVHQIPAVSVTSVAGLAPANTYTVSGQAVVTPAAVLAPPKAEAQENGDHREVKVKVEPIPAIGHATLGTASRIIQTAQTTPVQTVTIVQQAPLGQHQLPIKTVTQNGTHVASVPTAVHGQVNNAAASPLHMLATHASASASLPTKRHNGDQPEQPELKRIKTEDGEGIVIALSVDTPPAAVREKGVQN

Experiments:
[1] = target: ASXL1^N646-Flag (in U2OS) (human) (UniProt Q8IXJ9); assay: affinity purification with mass spectrometry; whole cell lysate of U2OS cells expressing Flag-tagged full-length or truncated ASXL1; anti-Flag M2-agarose overnight at 4 °C, 6 washes with 300 mmol/L NaCl buffer, in-gel digest, nano LC-MS/MS
[2] = target: ASXL1^FL-Flag (full-length ASXL1, Flag-tagged, in U2OS) (human) (UniProt Q8IXJ9); assay: as above

binding [1]: no binding
binding [2]: binds
Substance: endogenous FOXK2 (from UniProt Q01167 1-660)

These are yes or no findings as the source states them, for the method shown. Binding seen in cells or lysates may run through a third protein. Here binding means that the protein was enriched with, or labelled near, the bait; the list need not be complete. For some assays here: No binding means not detected with the bait.
